# Reference: US20020049300A1
# By UniProt entry, the sequences of proteins in these tests, tags left out.
# UniProt Q99836: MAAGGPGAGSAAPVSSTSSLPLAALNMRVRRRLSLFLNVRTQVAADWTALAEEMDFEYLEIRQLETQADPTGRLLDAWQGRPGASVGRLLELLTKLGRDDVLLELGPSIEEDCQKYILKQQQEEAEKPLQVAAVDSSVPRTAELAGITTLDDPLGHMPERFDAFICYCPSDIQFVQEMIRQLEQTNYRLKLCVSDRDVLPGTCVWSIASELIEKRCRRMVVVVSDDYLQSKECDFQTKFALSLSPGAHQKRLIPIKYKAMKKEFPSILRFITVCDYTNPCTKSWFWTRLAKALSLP
# Results are given in words; binding and its absence hold for the method and conditions named. Some results given as binding are weak or reduced against the parent protein; the word gives no strength.
# B1: human IRAK3 polypeptide (enzyme)
# chain: MAGNCGARGALSAHTLLFDLPPALLGELCAVLDSCDGALGWRGLAERLSSSWLDVRHIEKYVDQGKSGTRELLWSWAQKNKTIGDLLQVLQEMGHRRAIHLITNYGAVLSPSEKSYQEGGFPNILFKETANVTVDNVLIPEHNEKGVLLKSSISFQNIIEGTRNFHKDFLIGEGEIFEVYRVEIQNLTYAVKLFKQEKKMQCKKHWKRFLSELEVLLLFHHPNILELAAYFTETEKFCLIYPYMRNGTLFDRLQCVGDTAPLPWHIRIGILIGISKAIHYLHNVQPCSVICGSISSANILLDDQFQPKLTDFAMAHFRSHLEHQSCTINMTSSSSKHLWYMPEEYIRQGKLSIKTDVYSFGIVIMEVLTGCRVVLDDPKHIQLRDLLRELMEKRGLDSCLSFLDKKVPPCPRNFSAKLFCLAGRCAATRAKLRPSMDEVLNTLESTQASLYFAEDPPTSLKSFRCPSPLFLENVPSIPVEDDESQNNNLLPSDEGLRIDRMTQKTPFECSQSEVMFLSLDKKPESKRNEEACNMPSSSCEESWFPKYIVPSQDLRPYKVNIDPSSEAPGHSCRSRPVESSCSSKFSWDEYEQYKKE
# Target: MyD88 (UniProt Q99836)
# Assay: coexpression and in vitro binding assays (no details given)
binder,measurement,value
B1,binding,binds
